# Measured values reported in patent USRE42748E1, “Oral DTPA for radionuclide chelation” (priority 2006, dated 2011).
# Test system: iron-loaded dogs
# Assay: Excretion of iron after repeat dose administration of DTPA in iron-loaded dogs
# Type: in vivo, beagle dogs
# Experimental: The objective of this study was to evaluate the efficacy of an oral formulation of DTPA to enhance the excretion of iron in urine from iron-loaded dogs. Iron-loaded dogs were used in the study as a surrogate model for contamination by transuranic elements.
# Two treatment groups, consisting of one male and one female dog, were compared. Ca-DTPA in sterile saline was administered by the intravenous route, 10 mg/kg, on Day 1, followed by 4 days of treatment with Zn-DTPA (10 mg/kg daily). The oral treatment group was also administered 10 mg/kg in 20% Labrasol® in capsules, with Ca-DTPA on Day 1 and Zn-DTPA on Days 2-5. Blood was collected from each dog at the following time points: predose and 1, 4, 8, and 24 hr after dose administration on Day 1, and at 24 hr postdose on Days 2-5. Dogs were maintained in metabolism cages for the study, and urine was collected at 4, 8, and 24 hr after the Day 1 dose, and every 24 hr after the Day 2-5 doses. Collected samples were analyzed for iron, calcium, and zinc by Perkin-Elmer ICP (Inductively Coupled Plasma) unit.
# [1] = plasma, IV and oral groups, Days 1-5
structure (smiles),measurement,setting,value
"O=C([O-])CN(CCN(CC(=O)[O-])CC(=O)[O-])CCN(CC(=O)[O-])CC(=O)[O-].[Na+].[Na+].[Na+].[Zn+2] [Zn-DTPA, zinc diethylenetriaminepentaacetate]","Excretion of Zn in the urine, correlation with administration","urine, Zn-DTPA on study Days 2-5",did not seem to be correlated
"O=C([O-])CN(CCN(CC(=O)[O-])CC(=O)[O-])CCN(CC(=O)[O-])CC(=O)[O-].[Ca+2].[Na+].[Na+].[Na+] [Ca-DTPA, calcium diethylenetriaminepentaacetate]","Ca levels in the urine, correlation with administration","urine, Ca-DTPA on Day 1",did not show a correlation
O=C(O)CN(CCN(CC(=O)O)CC(=O)O)CCN(CC(=O)O)CC(=O)O [DTPA],Zn in plasma samples,[1],not detected
same,"plasma Ca and Fe, relation to treatment",[1],did not show any trend that appeared to be related to treatment
